Results on 37 sequences are retold here after the supplement of paper PMC10338343.

± gives the standard deviation. Some of the results follow. Many of these values have a large error.

The assay relates to EfPiwi piRISC loaded with L1MC piRNA (26 nt). Briefly: pre-steady-state target cleavage rate (min^-1); guide: L1MC piRNA 5'p-UAACUAAAUACUAUGCAAGCUGUAGG; MIWI and MILI are mouse PIWI proteins and EfPiwi is from a freshwater sponge; tags in brackets are library labels; higher = faster piRNA-guided slicing of the target. To be noted: auxiliary factor: 500 nM Ephydatia muelleri Gtsf1. In outline:
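At 33 °C in HEPES–potassium acetate buffer, a transcribed, DNA-blocked target RNA library […] was exposed for 0–8 or 0–960 min to 1 nM active affinity-purified piRISC carrying a single synthetic guide, with or without 500 nM GTSF1 partner protein. Uncleaved targets were sequenced and normalised to depth and to weakly complementary targets. With three trials pooled and k3 capped at 0.0001 min^-1, a burst-and-steady-state fit produced the pre-steady-state cleavage rate.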
As to UCCUGGUACAGCUUGCAUAGUAUUUAGUA, the “pre-steady-state target cleavage rate” value is 0.00657 ± 0.0033.

Consider UCCUGGAACAGCUCGCAUAGUAUUUAGUUA, for which the “pre-steady-state target cleavage rate” value was found to be 0.0171 ± 0.0048.

On to UCCUGGAUGUGCUUGUAUAGUAUUUAGUUA, for which the “pre-steady-state target cleavage rate” value came out at 0.0218 ± 0.0071.

With UCCUCCUACAUGCUUGCAUAGUAUUUAGUUA, the “pre-steady-state target cleavage rate” value turned out to be 0.00449 ± 0.0018.

For the sequence UCCUCCAUCAGCUUGCAUAGUAUUUAGUUA, the “pre-steady-state target cleavage rate” value was 0.0155 ± 0.005.

UCCUCCUACAGCUAGCAUAGUAAUUAGUUA: the “pre-steady-state target cleavage rate” value turned out to be 0.00535 ± 0.002.

With UCCUGCUACAGCUUGCAAAGAAUUUAGUUA, the “pre-steady-state target cleavage rate” value worked out at 0.00161 ± 0.0024.

On to UCCUGCUACAGCUUGGAUAGUAAUUAGUUA, for which the “pre-steady-state target cleavage rate” value stood at 0.00773 ± 0.0024.

On to UCCUGGAUCACGCUUGCAUAGUAUUUAGUUA, for which the “pre-steady-state target cleavage rate” value is 0.223 ± 0.05.

As for “UCCUGGAUGUCGAAGCAUAGUAUUAUCAAA [g7:g16:cont:t1A]”, the “pre-steady-state target cleavage rate” value is 0.000156 ± 0.021.

For UCCUCCUACAGCUUGCAUAGUAUUUUCAAA, the “pre-steady-state target cleavage rate” value was 0.00383 ± 0.0027.

Consider UCCUGCUACAGCUUGCUUAGUAUUUAGUAA, for which the “pre-steady-state target cleavage rate” value is 0.00437 ± 0.0017.

For UCCUGGAUCUGCUAGCAUAGUAUUUAGUUA, the “pre-steady-state target cleavage rate” value turned out to be 0.0121 ± 0.0038.

For the sequence UCCUGGAUGUCCUUGCAUAGUAUUGUAGUUA, the “pre-steady-state target cleavage rate” value stood at 0.00313 ± 0.0036.

For UCCUGGAACAGCUUGCUUAGUAAUUAGUUA, the “pre-steady-state target cleavage rate” value was found to be 0.00639 ± 0.0027.

As for UCCUGGAUCUGCUUGCUUAGUAUUUAGUUA, the “pre-steady-state target cleavage rate” value is 0.0931 ± 0.028.

As to UCCUGGUAGUCCUUGCAUAGUAUUUAGUAA, the “pre-steady-state target cleavage rate” value came out at 0.00627 ± 0.0035.

For UCCUCCUACUGCUUGCAUACUAUUUAGUUA, the “pre-steady-state target cleavage rate” value was 0.0106 ± 0.0044.

On to UCCUGGAUCAGCUUGCAUAGUAUUUGAGUUA, for which the “pre-steady-state target cleavage rate” value is 0.00696 ± 0.0028.

UCCUCCUACAGCUUGCAUAGUAUUUUAGUUA: the “pre-steady-state target cleavage rate” value came out at 0.0456 ± 0.014.

In the case of UCCUGGAUGUGCUUGCAUAGUAUUUGGUUA, the “pre-steady-state target cleavage rate” value came out at 0.00579 ± 0.003.

Regarding UCCUGCUACAGGUUGCAUAGUAUUAAGUUA, the “pre-steady-state target cleavage rate” value is 0.00526 ± 0.0024.

In the case of UCCUGGAACUCCUUGCAUAGUAUUUAGUAA, the “pre-steady-state target cleavage rate” value came to 0.00371 ± 0.0017.

For the sequence UCCUCCUAGAGCUUGCAUAGUAUUUAGUUA, the “pre-steady-state target cleavage rate” value stood at 0.0186 ± 0.0054.

In the case of “UCCUGGAUGUGCUUGCAUAGUAUUUAGUUA [g2:g20:cont:t1A]”, the “pre-steady-state target cleavage rate” value is 0.015 ± 0.0046.

In the case of UCCUCCUACUCGUUGCAUAGUAUUUAGUAA, the “pre-steady-state target cleavage rate” value worked out at 0.00477 ± 0.0029.

On to UCCUCCUACAGCAUGCAAAGUAUUUAGUUA, for which the “pre-steady-state target cleavage rate” value was 0.0492 ± 0.017.

Take UCCUGGAUGAGCUUGCAUAGUAUUUAAGUUA: the “pre-steady-state target cleavage rate” value worked out at 0.0082 ± 0.0031.

For the sequence UCCUCCUACAGCAUUGCAUAGUAUUUAGUUA, the “pre-steady-state target cleavage rate” value was 0.0213 ± 0.0068.

With UCCUCCUACAGCAAGCAUAGUAUUUAGUUA, the “pre-steady-state target cleavage rate” value is 0.0493 ± 0.018.

Regarding UCCUGGAUCAGCUUGCAUAGUCAUUUAGUUA, the “pre-steady-state target cleavage rate” value amounted to 0.000203 ± 0.031.

Regarding UCCUCCUACAGACUUGCAUAGUAUUUAGUUA, the “pre-steady-state target cleavage rate” value was 0.017 ± 0.006.

UCCUGCUACAGCAUGCUUAGUAUUUAGUUA: the “pre-steady-state target cleavage rate” value stood at 0.0122 ± 0.0038.

With UCCUGGAUGUGCUUGCAAAGUAUUUAGUAA, the “pre-steady-state target cleavage rate” value turned out to be 0.000824 ± 0.0046.

UCCUGGAUGUCGAACGUUAGUUUUUAGAUA: the “pre-steady-state target cleavage rate” value came out at 0.000258 ± 0.027.

In the case of UCCUGGAUGUGCUUGCAUAGAAUUUAGAAA, the “pre-steady-state target cleavage rate” value was found to be 0.000727 ± 0.004.

In the case of “UCCUCCUACAGCUUGCAUAGUAUUUAGUUC [g2:g26:cont:t1C]”, the “pre-steady-state target cleavage rate” value worked out at 0.146 ± 0.035.
